From PubChem BioAssay AID588590 (National Center for Advancing Translational Sciences (NCATS), 2011)
Out of some 390,000 compounds screened, about 4,000 (1%) were called active. The shares of active, inactive and inconclusive entries below differ from those in the screen. Calls come from the whole dose curve; as a rule, active = well fitted inhibition curve with a large enough effect; inconclusive = small, poorly fitted or top-dose-only effect, or another doubt; inactive = no such curve, though single readings can be large or run the other way. Where the call is inconclusive, the potency comes from a doubtful curve fit.
Potency is the fitted concentration of half-maximal effect.

Chains of the proteins cited; added tags and fusions are not shown. Lines headed by an entry give the natural chain unless they say otherwise; changes in a name come on top.
UniProt Q9UNA4: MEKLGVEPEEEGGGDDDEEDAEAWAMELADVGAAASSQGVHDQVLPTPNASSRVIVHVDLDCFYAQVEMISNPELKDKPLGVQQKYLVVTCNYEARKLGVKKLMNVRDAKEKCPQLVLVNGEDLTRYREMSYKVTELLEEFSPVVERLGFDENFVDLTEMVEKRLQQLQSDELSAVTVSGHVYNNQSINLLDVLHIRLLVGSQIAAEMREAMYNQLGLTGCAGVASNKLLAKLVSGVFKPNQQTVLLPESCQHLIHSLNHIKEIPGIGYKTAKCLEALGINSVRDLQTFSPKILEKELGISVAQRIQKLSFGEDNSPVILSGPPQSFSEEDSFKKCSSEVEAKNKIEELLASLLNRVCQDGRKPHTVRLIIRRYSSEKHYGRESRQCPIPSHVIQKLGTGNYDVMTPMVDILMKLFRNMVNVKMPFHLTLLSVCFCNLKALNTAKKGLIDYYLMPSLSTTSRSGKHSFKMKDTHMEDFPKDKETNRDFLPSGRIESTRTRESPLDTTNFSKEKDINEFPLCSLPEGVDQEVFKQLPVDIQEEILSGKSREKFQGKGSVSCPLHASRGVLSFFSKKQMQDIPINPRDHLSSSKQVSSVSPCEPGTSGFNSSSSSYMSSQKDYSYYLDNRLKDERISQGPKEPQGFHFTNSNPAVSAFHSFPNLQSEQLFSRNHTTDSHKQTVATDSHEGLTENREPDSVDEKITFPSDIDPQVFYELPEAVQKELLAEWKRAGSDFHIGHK

Each compound was assayed against DNA polymerase iota (Homo sapiens) (UniProt Q9UNA4) (assay: qHTS for Inhibitors of Polymerase Iota). Conditions: Pol iota fluorescent replication assay, 10 min; series mostly up to 115 µM; activity, negative = inhibition: at the top concentration.
Method in brief: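 Pol iota at 10 nM preincubated 15 min with compounds at room temperature; reaction started with fluorescent substrate, 50 nM final. Fluorescence read kinetically at 0 and 10 min; buffer-only wells as negative control.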
In the case of `CCOC(=O)CC(N)c1ccc2c(c1)OCO2` (stereo not drawn), the Potency is reported as inconclusive: 14.1 µM [inhibitor, full curve, poor fit]. For `COc1cccc2c1Oc1ncccc1N(c1ccc(C(=O)NCc3cccc(C)c3)s1)C2`, the Potency was active: 89.1 µM. For `Cc1ccc(NC(=O)C(C)c2cccc(C(=O)c3ccccc3)c2)cc1O` (stereo not drawn), the Potency was inconclusive: 112 µM [inhibitor, partial curve, poor fit]. In the case of `O=C(CN1CCN(c2ccc(F)cc2)CC1)c1cccs1`, the Potency is reported as inconclusive: 14.1 µM [inhibitor, full curve]. With `COCCN(Cc1ccco1)C(=O)Cn1ncc2c(=O)oc3ccccc3c21` the Potency was inconclusive: 79.4 µM [inhibitor, partial curve, poor fit]. For `CC1CCCCC1NC(=O)Cn1nnc(-c2ccc(Cl)cc2)n1` (stereo not drawn), the Potency was inconclusive: 89.1 µM [inhibitor, partial curve, poor fit]. With `COc1ccccc1OCc1ccc(C(=O)NCc2cccnc2)o1` the Potency was inconclusive: 39.8 µM [inhibitor, single point]. With `O=C(Cc1ccc(S(=O)(=O)N2CCCC2)s1)NC1CCCCCC1` the Potency was inconclusive: 35.5 µM [inhibitor, partial curve]. In the case of `CN(Cc1ccccc1)c1ccc(/C=C/c2ccnc3ccccc23)cc1`, the “activity, negative = inhibition” value is reported as inactive: 0.933%. For `O=C(NC1CCCC1)C(c1ccccn1)N(C(=O)c1csnn1)c1ccccc1Br` (stereo not drawn), the Potency was inconclusive: 89.1 µM [inhibitor, single point]. For `O=C(O)Cc1sc(N/N=C\c2ccncc2)nc1-c1ccccc1`, the Potency was inconclusive: 25.1 µM [inhibitor, full curve]. For `COc1ccc(F)cc1S(=O)(=O)N1CCC2(CC1)OCCN2S(=O)(=O)c1ccccc1`, the Potency was inconclusive: 79.4 µM [inhibitor, partial curve, poor fit]. With `CCOc1cc(/C=N/NC(=O)c2ccc(NC(=O)C3CC3)cc2)ccc1O` the Potency was inconclusive: 17.8 µM [inhibitor, full curve, poor fit]. With `N#C/C(=C\c1ccc(-c2cc(Cl)ccc2Cl)o1)C(=O)Nc1ccccc1C(=O)O` the Potency was inconclusive: 39.8 µM [inhibitor, single point]. For `S=C(NCCCCN(Cc1ccc(Cl)cc1)c1ccc(Br)cn1)NCCCc1cnc[nH]1`, the Potency was inconclusive: 89.1 µM [inhibitor, single point]. With `CCNc1c(NC(=O)c2cc(OCC)c(OCC)c(OCC)c2)c(=O)oc2ccccc12` the “activity, negative = inhibition” value was inactive: 19.9%. With `O=C(NCc1ccco1)c1ccc(Cn2cc([N+](=O)[O-])cn2)o1` the “activity, negative = inhibition” value was inactive: 10.9%. In the case of `Cc1cc(C)n(CCc2nc(-c3cc4ccccc4o3)cs2)n1`, the “activity, negative = inhibition” value is reported as inactive: 24.3%.
